PubChem BioAssay AID504764, Drosophila RNAi Screening Center, 2011

- Aim: 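Genome-wide screen for regulators of Notch-driven gene expression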 (primary screen)
- System: Drosophila Kc167 cells
- Knock-down reagent: long dsRNA against Drosophila genes
- Time to read-out: about 5 days (4 days dsRNA, then 24 h after transfection)
- Challenge: transfection of constitutively active membrane-tethered Notch lacking the extracellular domain, read 24 h later
- Measured: 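Light from a Notch-responsive E(spl)m3 luciferase reporter under active Notch, with control-promoter and no-Notch reporter wells to normalise; raw counts from paired wells a and b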
- Reading the numbers: induced reporter light, run 1, well a and induced reporter light, run 1, well b: higher = more light from the Notch target reporter with active Notch; control promoter light, run 1, well a and control promoter light, run 1, well b: higher = more light from the viral control promoter (cell number, transfection, viability); uninduced reporter light, run 1, well a: higher = more light from the Notch target reporter without active Notch
- Active means: 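Hit if the duplicate-averaged log2 ratio of induced to control-promoter light gives a plate-wise z beyond ±2, or induced to uninduced beyond ±1.8; weak-control or discordant-duplicate wells dropped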
- Meaning of the calls: active = modifier hit (raised or lowered Notch signal); inactive = not a hit
In all, the deposit lists about 22,000 reagents; shown is a random part of those that have a named target and a result. Of all reagents, 403 (1.9%) are marked active. 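Unnormalised raw counts per well; ratio z-scores behind the hit calls and whether each hit raises or lowers signal are not deposited.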 The record does not give: the amount of reagent.

no.	gene	PubChem SID	induced reporter light, run 1, well a	induced reporter light, run 1, well b	control promoter light, run 1, well a	control promoter light, run 1, well b	uninduced reporter light, run 1, well a	Outcome
1	car	SID104200108	1.53e5	1.59e5	1.33e5	82605	13495	inactive
2	CG12995	SID104199307	82100	66155	96845	74595	12500	inactive
3	CG31091	SID104195725	1.52e5	1.64e5	1.96e5	1.96e5	13588	inactive
4	CG34028	SID104197406	76150	71385	89855	67965	5245	inactive
5	CG42565	SID104183946	1.96e5	2.10e5	1.74e5	1.89e5	14140	inactive
6	x16	SID104180752	82000	76575	1.01e5	1.22e5	8005	inactive
7	x16	SID104183430	1.64e5	1.89e5	2.01e5	1.93e5	18085	inactive
8	CG14456	SID104191505	1.19e5	1.09e5	1.14e5	1.24e5	7415	inactive
9	VGlut	SID104180525	1.21e5	1.06e5	1.08e5	65045	8160	inactive
10	CCDC151	SID104189923	1.04e5	1.43e5	1.93e5	1.54e5	6695	inactive
11	brp	SID104186037	1.50e5	1.69e5	1.98e5	1.92e5	14650	inactive
12	brp	SID104186038	1.70e5	1.45e5	1.86e5	2.02e5	15255	inactive
13	brp	SID104186593	1.76e5	1.61e5	2.06e5	2.12e5	16285	inactive
14	Lamtor4	SID104188228	1.21e5	1.22e5	1.51e5	1.64e5	5400	inactive
15	Saf6	SID104180425	1.60e5	1.56e5	1.66e5	1.50e5	15520	inactive
16	TotM	SID104182147	1.62e5	1.18e5	1.74e5	1.77e5	7845	inactive
17	trx	SID104196881	57500	47735	42760	37155	5340	inactive
18	pot	SID104199642	1.94e5	1.74e5	2.63e5	2.73e5	13380	inactive
19	RalGPS	SID104186733	65320	73875	1.05e5	1.17e5	5505	inactive
20	by	SID104196274	75615	76510	75230	59045	3878	inactive
